Experimental findings from PubChem BioAssay AID284 (DTP/NCI, 2004) are described below.

The test system of the test is BDF1 mice, L1210/MTX-resistant leukemia ip, survival T/C. As to the kind of experiment: NCI In Vivo Anticancer Drug Screen. Data for tumor model L1210 Leukemia resistant to Methotrexate; NSC 740 (intraperitoneal) in B6D2F1 (BDF1) mice. The settings on record: T/C endpoint: mean survival time, higher T/C = longer survival. The procedure: The antitumor activity of compounds was measured in mice bearing transplantable tumors. Survival or tumor size were measured and the results are expressed as the measurement made in the treated group (T) divided by the measurement made in the vehicle treated control group (C). The tumor model used in this assay is L1210 Leukemia resistant to Methotrexate; NSC 740 (intraperitoneal) in B6D2F1 (BDF1) mice

[1] abbreviates: dose: 16.0 mg/kg/injection, schedule: Q01DX010 (ip), vehicle: other.
Setting [2] is: dose: 6.3 mg/kg/injection, schedule: Q01DX Z (ip), vehicle: methylcellulose (MC).
[3] abbreviates: dose: 12.5 mg/kg/injection, schedule: Q01DX Z (ip), vehicle: methylcellulose (MC).
Setting [4] is: dose: 25.0 mg/kg/injection, schedule: Q01DX Z (ip), vehicle: methylcellulose (MC).
The mark [5] stands for this setting: dose: 50.0 mg/kg/injection, schedule: Q01DX Z (ip), vehicle: carboxymethylcellulose (CMC).
The mark [6] stands for this setting: dose: 50.0 mg/kg/injection, schedule: Q01DX Z (ip), vehicle: methylcellulose (MC).
Where [7] appears, read: dose: 100.0 mg/kg/injection, schedule: Q01DX Z (ip), vehicle: methylcellulose (MC).

The list is a part of this screen's results and no random one: it gathers tests that were run many times, whatever their T/C, doses with no T/C, and many T/C values between a quarter and a half above the control. Other doses and runs of a compound stand elsewhere. T/C: endpoint of the treated group in % of that of the vehicle group. Some entries give survivors of the animals treated and no T/C: the source files T/C as zero there, which appears to mark a toxic dose or a test without result, not a measured value. Some survivor counts are full or nearly so, which does not show that the dose was tolerated: the source hardly ever lists a survival T/C far under the control, and the zero likely stands for such cases as well. Counts of survivors are from the toxicity check (mostly the fifth day) where no day follows; animals may have died later. Schedules are NCI's codes, read here as Q, the interval in days (D) or hours (H), X, the number of doses. Some schedule codes hold Z or #, which are not explained here. Some entries hold several experiments; the values are given in rising order. Some structures stand for samples that the source files as different forms (salt, stereo form or complex); doses refer to the form tested. For survival time, the PubChem record calls one and a half times the control and up active, and a quarter to a half above the control has no call in these data; cut-offs in other NCI protocols can differ.

Take `CCN(CC)c1ccc2cc3ccc(=[N+](CC)CC)cc-3oc2c1`: the survivor count (dose: 8.0 mg/kg/injection, schedule: Q01DX010 (ip), vehicle: saline) was 6 of 6.

On to `Nc1nc(F)nc2c1ncn2C1OC(CO)C(O)C1O` (stereo unspecified), for which the T/C runs as follows: (dose: 0.18 mg/kg/injection, schedule: Q01DX Z (ip), vehicle: saline) 134 % of control; (dose: 0.37 mg/kg/injection, schedule: Q01DX Z (ip), vehicle: saline) 140 % of control; (dose: 0.5 mg/kg/injection, schedule: Q01DX Z (ip), vehicle: saline) 130 % of control.

Regarding `CCCCNc1ncnc2c1cnn2C`, the survivor count runs as follows: (dose: 62.5 mg/kg/injection, schedule: Q01DX010 (ip), vehicle: saline) 6 of 6; (dose: 125.0 mg/kg/injection, schedule: Q01DX010 (ip), vehicle: saline) 5 of 6; (dose: 250.0 mg/kg/injection, schedule: Q01DX010 (ip), vehicle: saline) 0 of 6.

In the case of `CCc1nc(N)nc(N)c1-c1ccc(Cl)cc1`, the survivor count reads like this: (dose: 72.0 mg/kg/injection, schedule: Q01DX Z (ip), vehicle: carboxymethylcellulose (CMC)) 7 of 7; (dose: 144.0 mg/kg/injection, schedule: Q01DX Z (ip), vehicle: carboxymethylcellulose (CMC)) 0 of 7.

Take `Nc1nc2c(c(=O)[nH]1)N=C(CNc1ccc(C(=O)NC(CCC(=O)O)C(=O)O)cc1)CN2` (stereo unspecified): the survivor count is, setting by setting: (dose: 1.0 mg/kg/injection, schedule: Q01DX009 (ip), vehicle: sodium bicarbonate) 6 of 6; (dose: 2.0 mg/kg/injection, schedule: Q01DX009 (ip), vehicle: sodium bicarbonate) 6 of 6; (dose: 4.0 mg/kg/injection, schedule: Q01DX009 (ip), vehicle: sodium bicarbonate) 6 of 6; (dose: 8.0 mg/kg/injection, schedule: Q01DX009 (ip), vehicle: sodium bicarbonate) 6 of 6; (dose: 16.0 mg/kg/injection, schedule: Q01DX009 (ip), vehicle: sodium bicarbonate) 6 of 6.

With `NC(Cc1ccc(N(CCCl)CCCl)cc1)C(=O)O` (stereo unspecified), the survivor count is 6 of 6 (dose: 15.0 mg/kg/injection, schedule: Q01DX Z (ip), vehicle: carboxymethylcellulose (CMC)) and 6 of 6 under setting [1].

Consider `CS(=O)(=O)OCCCCOS(C)(=O)=O`, for which the survivor count (dose: 1.5 mg/kg/injection, schedule: Q01DX Z (ip), vehicle: methylcellulose (MC)) is reported as 5 of 6; the survivor count (dose: 3.0 mg/kg/injection, schedule: Q01DX Z (ip), vehicle: methylcellulose (MC)) was 3 of 6; the survivor count (dose: 3.1 mg/kg/injection, schedule: Q01DX Z (ip), vehicle: methylcellulose (MC)) is 6 of 6; the survivor count under setting [2] is on record as 3 of 6; the survivor count (dose: 12.5 mg/kg/injection, schedule: Q01DX Z (ip), vehicle: carboxymethylcellulose (CMC)) is recorded as 6 of 6; the survivor count under setting [3] was 5 of 6. The survivor count was 5 of 6 (dose: 25.0 mg/kg/injection, schedule: Q01DX010 (ip), vehicle: saline); 4 of 6 and 6 of 6 (dose: 25.0 mg/kg/injection, schedule: Q01DX Z (ip), vehicle: carboxymethylcellulose (CMC)); 5 of 6 under setting [4]; 6 of 6 (dose: 50.0 mg/kg/injection, schedule: Q01DX010 (ip), vehicle: saline); 0 of 6 and 6 of 6 under setting [5]; 1 of 6 under setting [6]. For the same molecule, the survivor count under setting [7] was 0 of 6.

As to `CN(C)c1nc(N(C)C)nc(N(C)C)n1`, the survivor count by setting is: (dose: 2.0 mg/kg/injection, schedule: Q01DX Z (ip), vehicle: other) 6 of 6; (dose: 350.0 mg/kg/injection, schedule: Q01DX Z (ip), vehicle: other) 4 of 6; (dose: 500.0 mg/kg/injection, schedule: Q01DX Z (ip), vehicle: other) 2 of 6.

As for `O=C1N(Cl)C(=O)C(c2ccc(Cl)cc2)(c2ccc(Cl)cc2)N1Cl`, the survivor count is, setting by setting: under setting [2], 6 of 6; under setting [3], 6 of 6.

On to `O=c1[nH]c(=O)n(C2CC(O)C(CO)O2)cc1F` (stereo unspecified), for which the T/C was 142 % of control (dose: 40.0 mg/kg/injection, schedule: Q01DX Z (ip), vehicle: other) and 128 % of control (dose: 80.0 mg/kg/injection, schedule: Q01DX Z (ip), vehicle: other). Moreover, the survivor count (dose: 160.0 mg/kg/injection, schedule: Q01DX Z (ip), vehicle: other) is listed as 6 of 6.

As to `Nc1nc(=S)c2ncn(C3OC(CO)C(O)C3O)c2[nH]1` (stereo unspecified), the survivor count reads like this: (dose: 0.9 mg/kg/injection, schedule: Q01DX Z (ip), vehicle: carboxymethylcellulose (CMC)) 5 of 6; (dose: 3.75 mg/kg/injection, schedule: Q01DX Z (ip), vehicle: carboxymethylcellulose (CMC)) 6 of 6; (dose: 5.0 mg/kg/injection, schedule: Q01DX Z (ip), vehicle: carboxymethylcellulose (CMC)) 6 of 6; (dose: 7.5 mg/kg/injection, schedule: Q01DX Z (ip), vehicle: carboxymethylcellulose (CMC)) 6 of 6; (dose: 10.0 mg/kg/injection, schedule: Q01DX Z (ip), vehicle: carboxymethylcellulose (CMC)) 6 of 6.

As to `CN(N=O)C(N)=O`, the T/C reads like this: (dose: 10.0 mg/kg/injection, schedule: Q01DX010 (ip), vehicle: saline) 149 % of control; (dose: 20.0 mg/kg/injection, schedule: Q01DX010 (ip), vehicle: saline) 142 % of control. Further, the survivor count is, setting by setting: (dose: 40.0 mg/kg/injection, schedule: Q01DX010 (ip), vehicle: saline) 6 of 6; (dose: 50.0 mg/kg/injection, schedule: Q01DX Z (ip), vehicle: saline) 6 of 6; (dose: 100.0 mg/kg/injection, schedule: Q01DX Z (ip), vehicle: saline) 0 of 6; (dose: 200.0 mg/kg/injection, schedule: Q01DX Z (ip), vehicle: saline) 0 of 6.

In the case of `C[C@H]1C(=O)O[C@@H]2CCN3CC=C(COC(=O)[C@](C)(O)[C@@]1(C)O)[C@H]23`, the survivor count runs as follows: under setting [3], 6 of 6; under setting [4], 4 of 6; under setting [6], 3 of 6 and 6 of 6; under setting [7], 6 of 6; (dose: 200.0 mg/kg/injection, schedule: Q01DX Z (ip), vehicle: methylcellulose (MC)) 5 of 6.

Regarding `O=C(Nc1ccc(C2=NCCCN2)cc1)c1ccc(C(=O)Nc2ccc(C3=NCCCN3)cc2)cc1`, the survivor count reads like this: under setting [1], 5 of 6; under setting [5], 0 of 6; (dose: 75.0 mg/kg/injection, schedule: Q01DX Z (ip), vehicle: carboxymethylcellulose (CMC)) 0 of 6; (dose: 100.0 mg/kg/injection, schedule: Q01DX Z (ip), vehicle: carboxymethylcellulose (CMC)) 0 of 6; (dose: 187.0 mg/kg/injection, schedule: Q01DX Z (ip), vehicle: carboxymethylcellulose (CMC)) 0 of 6; (dose: 250.0 mg/kg/injection, schedule: Q01DX Z (ip), vehicle: carboxymethylcellulose (CMC)) 0 of 6. Besides, the survivor count is 0 of 6 (dose: 375.0 mg/kg/injection, schedule: Q01DX Z (ip), vehicle: carboxymethylcellulose (CMC)) and 0 of 6 (dose: 500.0 mg/kg/injection, schedule: Q01DX Z (ip), vehicle: carboxymethylcellulose (CMC)).
